# Screening data, single-dose tests

The chains behind the UniProt entries cited, without tags or fusion partners. Residues count along the entry.
UniProt P9WFT3, whole entry: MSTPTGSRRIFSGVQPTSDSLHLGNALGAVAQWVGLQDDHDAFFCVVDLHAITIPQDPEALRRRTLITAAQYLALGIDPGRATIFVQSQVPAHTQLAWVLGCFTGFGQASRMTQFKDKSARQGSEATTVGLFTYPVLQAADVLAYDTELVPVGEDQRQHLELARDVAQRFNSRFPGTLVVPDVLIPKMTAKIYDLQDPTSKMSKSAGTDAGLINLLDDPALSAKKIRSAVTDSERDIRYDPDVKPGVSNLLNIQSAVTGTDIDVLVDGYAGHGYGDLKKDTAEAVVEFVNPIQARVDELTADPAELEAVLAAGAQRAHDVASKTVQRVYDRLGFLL
UniProt I6X8D2, whole entry: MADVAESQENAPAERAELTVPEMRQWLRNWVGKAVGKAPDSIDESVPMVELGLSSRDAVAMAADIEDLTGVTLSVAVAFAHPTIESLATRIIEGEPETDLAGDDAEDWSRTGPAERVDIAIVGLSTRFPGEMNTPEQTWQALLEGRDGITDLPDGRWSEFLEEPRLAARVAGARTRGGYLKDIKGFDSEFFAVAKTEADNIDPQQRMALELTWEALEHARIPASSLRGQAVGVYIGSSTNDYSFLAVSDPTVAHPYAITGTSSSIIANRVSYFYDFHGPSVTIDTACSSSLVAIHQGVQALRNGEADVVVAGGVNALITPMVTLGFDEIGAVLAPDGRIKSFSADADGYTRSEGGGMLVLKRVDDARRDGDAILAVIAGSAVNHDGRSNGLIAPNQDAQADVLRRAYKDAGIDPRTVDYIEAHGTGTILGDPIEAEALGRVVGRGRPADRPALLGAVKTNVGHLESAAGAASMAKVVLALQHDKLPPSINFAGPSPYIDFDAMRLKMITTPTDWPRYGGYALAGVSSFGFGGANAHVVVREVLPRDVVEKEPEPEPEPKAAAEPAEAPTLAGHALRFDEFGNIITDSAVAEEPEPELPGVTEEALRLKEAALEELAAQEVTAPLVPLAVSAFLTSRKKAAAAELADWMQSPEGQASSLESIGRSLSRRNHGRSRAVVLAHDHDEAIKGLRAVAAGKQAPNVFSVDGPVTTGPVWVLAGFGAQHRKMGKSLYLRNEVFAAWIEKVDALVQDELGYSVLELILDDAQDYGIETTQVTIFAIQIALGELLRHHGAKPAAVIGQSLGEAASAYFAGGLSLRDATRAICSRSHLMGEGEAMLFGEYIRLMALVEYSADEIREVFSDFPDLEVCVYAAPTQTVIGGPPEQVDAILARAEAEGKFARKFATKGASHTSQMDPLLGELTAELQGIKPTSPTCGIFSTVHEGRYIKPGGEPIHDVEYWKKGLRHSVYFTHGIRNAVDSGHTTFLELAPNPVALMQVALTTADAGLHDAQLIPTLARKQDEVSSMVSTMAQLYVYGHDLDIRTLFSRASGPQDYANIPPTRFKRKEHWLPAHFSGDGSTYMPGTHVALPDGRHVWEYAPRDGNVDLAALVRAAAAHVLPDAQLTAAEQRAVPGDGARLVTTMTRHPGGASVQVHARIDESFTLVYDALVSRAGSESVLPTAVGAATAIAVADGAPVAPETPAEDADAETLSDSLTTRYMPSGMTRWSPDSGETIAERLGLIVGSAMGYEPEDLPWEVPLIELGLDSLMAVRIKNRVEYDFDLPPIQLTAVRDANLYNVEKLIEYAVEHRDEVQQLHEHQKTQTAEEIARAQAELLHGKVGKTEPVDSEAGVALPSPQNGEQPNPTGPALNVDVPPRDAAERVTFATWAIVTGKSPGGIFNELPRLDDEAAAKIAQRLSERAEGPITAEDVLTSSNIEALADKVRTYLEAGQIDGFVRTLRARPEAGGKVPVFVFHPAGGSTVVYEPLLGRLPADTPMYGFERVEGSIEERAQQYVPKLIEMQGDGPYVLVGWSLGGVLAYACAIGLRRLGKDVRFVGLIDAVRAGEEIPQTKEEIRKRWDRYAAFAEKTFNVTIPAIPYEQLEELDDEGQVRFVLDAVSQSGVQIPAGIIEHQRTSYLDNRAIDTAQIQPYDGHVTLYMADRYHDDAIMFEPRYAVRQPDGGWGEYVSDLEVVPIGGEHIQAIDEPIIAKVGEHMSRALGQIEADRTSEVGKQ
UniProt A4I591, 1-473: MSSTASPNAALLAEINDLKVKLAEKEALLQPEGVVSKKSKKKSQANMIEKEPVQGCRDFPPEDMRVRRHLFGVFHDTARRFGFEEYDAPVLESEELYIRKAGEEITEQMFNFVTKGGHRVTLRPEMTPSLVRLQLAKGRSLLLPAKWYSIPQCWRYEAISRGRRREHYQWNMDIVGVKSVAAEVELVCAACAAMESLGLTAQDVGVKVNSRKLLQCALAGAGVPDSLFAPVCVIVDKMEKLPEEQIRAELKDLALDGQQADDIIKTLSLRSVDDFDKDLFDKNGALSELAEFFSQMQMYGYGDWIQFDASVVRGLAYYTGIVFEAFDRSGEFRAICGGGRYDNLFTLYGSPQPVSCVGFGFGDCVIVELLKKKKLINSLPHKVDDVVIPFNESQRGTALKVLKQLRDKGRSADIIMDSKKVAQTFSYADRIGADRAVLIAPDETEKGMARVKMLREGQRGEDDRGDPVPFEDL
UniProt Q8IDJ8, 1-583: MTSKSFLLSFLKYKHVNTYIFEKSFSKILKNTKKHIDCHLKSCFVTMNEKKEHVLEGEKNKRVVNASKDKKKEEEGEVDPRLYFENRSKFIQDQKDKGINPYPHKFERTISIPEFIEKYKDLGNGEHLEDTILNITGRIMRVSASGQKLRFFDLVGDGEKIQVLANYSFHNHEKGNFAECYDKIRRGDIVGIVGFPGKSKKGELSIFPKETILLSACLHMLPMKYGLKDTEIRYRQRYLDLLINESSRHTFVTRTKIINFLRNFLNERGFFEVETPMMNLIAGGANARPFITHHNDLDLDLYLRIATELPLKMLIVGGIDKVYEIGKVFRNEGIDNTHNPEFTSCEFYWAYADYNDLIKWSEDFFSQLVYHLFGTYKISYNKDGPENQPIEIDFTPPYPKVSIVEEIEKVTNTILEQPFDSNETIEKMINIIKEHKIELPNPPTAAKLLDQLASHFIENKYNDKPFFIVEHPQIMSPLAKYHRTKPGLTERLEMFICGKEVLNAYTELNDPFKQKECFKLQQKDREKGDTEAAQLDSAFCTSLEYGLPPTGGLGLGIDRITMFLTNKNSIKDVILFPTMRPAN

The values are deposited in ChEMBL (CHEMBL3988442, “University of Dundee, Small-Polar-MMV Screening Library” (2021)).

Each number is a percent effect as filed. The controls that fix the scale are not given in the record; negative values are as filed. This is an unselected part of the compounds tested. A dash means the value is not listed here; it may have been measured.

MtTrpRS: 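Tryptophan-tRNA ligase, Mycobacterium tuberculosis (UniProt P9WFT3). Enzyme assay of tryptophanyl-tRNA synthetase; the read-out is not stated. Tested at 10 µM. Higher most likely means stronger inhibition; the record gives no direction and few retests gave an IC50. Size under these conditions: about 65,000 compounds, about 64 of them at 50% or above in at least one test.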
Pks13 thioesterase: 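Polyketide synthase Pks13, Mycobacterium tuberculosis (UniProt I6X8D2). Enzyme assay of the thioesterase domain of polyketide synthase 13; the read-out is not stated. Compounds at 30 µM. Higher reads as stronger inhibition (inferred from which compounds were picked for retests). Of about 67,000 compounds tested this way, about 300 (0.46%) reached 50% or more in at least one test.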
LiHisRS: 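Enzyme assay of histidyl-tRNA synthetase; the read-out is not stated. Target: Histidine-tRNA ligase, Leishmania infantum (UniProt A4I591). Compounds at 30 µM. Higher reads as stronger inhibition (inferred: compounds with an IC50 in retests scored well above the rest). The assay is labelled LdHisRS but filed under L. infantum. Size under these conditions: about 69,000 compounds, about 410 of them at 50% or above in at least one test.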
PfKRS1: 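Enzyme assay of the cytosolic lysyl-tRNA synthetase in 384-well plates, read by luminescence. Target: Lysine-tRNA ligase, Plasmodium falciparum 3D7 (UniProt Q8IDJ8). Concentration: 30 µM. Higher reads as stronger inhibition, judged from the few compounds that gave an IC50. Size under these conditions: about 69,000 compounds, about 49 of them at 50% or above in at least one test.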

Compound,MtTrpRS,Pks13 thioesterase,LiHisRS,PfKRS1
COCCn1cc(CC(=O)Nc2nc[nH]n2)c2ccccc21,-2.573%,-14.25%,16.67%,0.9473%
CN(Cc1ccccc1)S(=O)(=O)N1C[C@H](C2CC2)[C@@H](N)C1,1.34%,-6.625%,6.667%,6.2%
O=c1[nH][nH]cc1-c1ccnc(NCCc2ccc(F)cc2)n1,-,13.98%,25.71%,2.651%
COc1cc(C)nc(N2CCN(C(=O)CNC(C)(C)C)CC2)n1,-0.8166%,4.643%,-19.15%,4.923%
CC(=O)NC1(C(=O)N2CCC(Nc3cccnn3)CC2)CCCCC1,10.03%,-15.76%,8.219%,-1.984%
Cc1cccc(CNc2nnc(C(C)C)o2)c1,1.008%,-20.66%,2.857%,-0.8122%
COC(=O)[C@@H]1Cc2ncn(C(C)C)c2CN1S(=O)(=O)Cc1ccccc1,0.2288%,-13.9%,29.73%,8.768%
Cc1cccc(-c2noc(CN3CCc4nn(C)c(=O)cc4C3)n2)c1,7.348%,7.551%,87.84%,68.9%
CC(C)CC(C#N)NC(=O)c1ccc(Oc2cccnc2)cc1 (stereo unspecified),-9.814%,-27.5%,12%,3.346%
O=C(c1ccoc1)N1CCO[C@]2(CCC[C@@H]2COCc2ccncc2)C1,-0.1627%,-20.18%,20%,12.06%
CC1CCN(C(=O)C(C)Oc2ccc3c(c2)OCO3)CC1 (stereo unspecified),-0.2867%,-13.3%,23.01%,5.048%
O=C(CCn1ccc2ccc(F)cc21)/N=c1\[nH]nc(C2CCCO2)s1 (stereo unspecified),3.376%,0.7731%,13.04%,1.766%
O=C(c1cc[nH]n1)N1CCc2cc(Br)sc2C1,6.498%,-25.73%,1.429%,-5.077%
CN1CCCC2(CCN(c3cccc(C(F)(F)F)n3)C2)C1=O (stereo unspecified),-1.188%,-17.43%,-1.316%,0.02454%
CS(=O)(=O)N1C[C@@H]2OCC(=O)N(CC3CC3)[C@@H]2C1,-4.292%,-29.93%,13.89%,6.715%
CC(C)(C)n1cc(CNC2CCN(C(=O)c3ccoc3)CC2)cn1,0.1009%,-40.75%,32.39%,-0.4924%
COCCNC(=O)N1CCOCC1c1c(C)nn(C)c1C (stereo unspecified),1.56%,-10.58%,0%,6.069%
O=C(C1CCOC1)N1CCN(CC(F)(F)F)c2ccccc21 (stereo unspecified),2.574%,-0.7143%,5.882%,0.6213%
O=C(c1ccc2[nH]cnc2c1)N1CCC(COc2ccccn2)CC1,2.055%,-7.042%,17.33%,11.65%
Cc1noc(C)c1CC(=O)N1CCC(c2ccn3nccc3n2)CC1,-11.57%,-11.21%,4.027%,0.439%
CC1CCN(C(=O)c2ccc(N(C)Cc3cnn(C)c3)nc2)CC1,2.333%,-9.755%,20.65%,3.907%
CC(CCn1cccn1)NCc1n[nH]c2c1CCCCC2 (stereo unspecified),-3.809%,11.55%,0.7937%,-1.889%
Cc1nc(C)c(CC(=O)N2CCCN(CC3CC3)C(C(C)C)C2)c(=O)[nH]1 (stereo unspecified),2.949%,1.668%,4%,-1.177%
COc1ccc(NC(C)c2ccc(C#N)cc2)cc1N1CCCC1=O (stereo unspecified),2.249%,-4.163%,3.175%,-2.265%
CCOc1ccc2oc(-c3cn(C)nc3C)c(O)c(=O)c2c1,-2.694%,-6.471%,11.5%,-3.816%
Cc1ccc(C(C)N(C)C(=O)c2ccc(=O)n(C)c2)s1 (stereo unspecified),3.988%,-15.31%,7.254%,3.176%
O=C(CN1CCN(C(=O)c2sccc2C2CC2)CC1)NC1CC1,16.1%,-31.32%,-0.8696%,0.2355%
Clc1cnccc1N1CCC(OC2CCOCC2)CC1,-0.273%,-20.64%,16.42%,6.299%
CCNC(=O)NC1CN(Cc2ccncc2Cl)C[C@@H]1OC (stereo partly specified),0.07886%,10.71%,11.86%,6.313%
CCOc1ccc(Cl)c(C(=O)NCCc2ncc[nH]2)n1,-4.011%,-18.02%,23.15%,0.8768%
CNC(=O)C1CN(C)CCN(CCCOc2ccccc2F)C1 (stereo unspecified),-3.137%,-3.8%,4.828%,0.7901%
CN(CCCOc1ccccc1)S(=O)(=O)N1CCOCC1,3.016%,-28.44%,25%,10.99%
O=C(Nc1cccc(CN2CCOC2=O)c1)N1CCOCC1,-2.654%,-9.562%,18.27%,5.359%
Cn1cc(CN2CCOC(c3cccc(-c4cncnc4)n3)C2)cn1 (stereo unspecified),-0.5875%,-2.616%,11.19%,3.513%

For reference, 2 entries once more:

* CN(CCCOc1ccccc1)S(=O)(=O)N1CCOCC1 | MtTrpRS: 3.016%; Pks13 thioesterase: -28.44%; LiHisRS: 25%; PfKRS1: 10.99%
* CCOc1ccc2oc(-c3cn(C)nc3C)c(O)c(=O)c2c1 | MtTrpRS: -2.694%; Pks13 thioesterase: -6.471%; LiHisRS: 11.5%; PfKRS1: -3.816%